Experimental data: paper PMC3757036
These are yes or no findings as the source states them, for the method shown. In cells and extracts the contact can be indirect. Some results given as binding are weak or reduced against the parent protein; the word gives no strength.

Amino acid sequences for entries named in this document (tags omitted).
UniProt Q9D752: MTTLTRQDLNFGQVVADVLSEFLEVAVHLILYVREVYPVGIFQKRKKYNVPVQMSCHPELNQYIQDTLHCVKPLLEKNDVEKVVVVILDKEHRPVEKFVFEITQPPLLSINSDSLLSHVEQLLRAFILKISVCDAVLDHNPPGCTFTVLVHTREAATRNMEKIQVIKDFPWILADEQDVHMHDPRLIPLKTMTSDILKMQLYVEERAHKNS
UniProt P24860: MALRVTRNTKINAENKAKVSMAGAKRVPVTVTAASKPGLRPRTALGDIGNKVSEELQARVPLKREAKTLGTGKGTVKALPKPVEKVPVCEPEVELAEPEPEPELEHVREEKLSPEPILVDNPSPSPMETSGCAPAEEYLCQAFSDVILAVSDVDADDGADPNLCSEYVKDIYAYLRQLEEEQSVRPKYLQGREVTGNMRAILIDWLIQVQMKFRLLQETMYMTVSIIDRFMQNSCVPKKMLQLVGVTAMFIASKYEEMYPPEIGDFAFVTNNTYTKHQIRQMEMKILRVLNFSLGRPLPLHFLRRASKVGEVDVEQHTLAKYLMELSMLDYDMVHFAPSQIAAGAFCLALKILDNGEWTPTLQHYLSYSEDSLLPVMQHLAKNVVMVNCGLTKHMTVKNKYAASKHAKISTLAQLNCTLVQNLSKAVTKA
UniProt Q9Z148: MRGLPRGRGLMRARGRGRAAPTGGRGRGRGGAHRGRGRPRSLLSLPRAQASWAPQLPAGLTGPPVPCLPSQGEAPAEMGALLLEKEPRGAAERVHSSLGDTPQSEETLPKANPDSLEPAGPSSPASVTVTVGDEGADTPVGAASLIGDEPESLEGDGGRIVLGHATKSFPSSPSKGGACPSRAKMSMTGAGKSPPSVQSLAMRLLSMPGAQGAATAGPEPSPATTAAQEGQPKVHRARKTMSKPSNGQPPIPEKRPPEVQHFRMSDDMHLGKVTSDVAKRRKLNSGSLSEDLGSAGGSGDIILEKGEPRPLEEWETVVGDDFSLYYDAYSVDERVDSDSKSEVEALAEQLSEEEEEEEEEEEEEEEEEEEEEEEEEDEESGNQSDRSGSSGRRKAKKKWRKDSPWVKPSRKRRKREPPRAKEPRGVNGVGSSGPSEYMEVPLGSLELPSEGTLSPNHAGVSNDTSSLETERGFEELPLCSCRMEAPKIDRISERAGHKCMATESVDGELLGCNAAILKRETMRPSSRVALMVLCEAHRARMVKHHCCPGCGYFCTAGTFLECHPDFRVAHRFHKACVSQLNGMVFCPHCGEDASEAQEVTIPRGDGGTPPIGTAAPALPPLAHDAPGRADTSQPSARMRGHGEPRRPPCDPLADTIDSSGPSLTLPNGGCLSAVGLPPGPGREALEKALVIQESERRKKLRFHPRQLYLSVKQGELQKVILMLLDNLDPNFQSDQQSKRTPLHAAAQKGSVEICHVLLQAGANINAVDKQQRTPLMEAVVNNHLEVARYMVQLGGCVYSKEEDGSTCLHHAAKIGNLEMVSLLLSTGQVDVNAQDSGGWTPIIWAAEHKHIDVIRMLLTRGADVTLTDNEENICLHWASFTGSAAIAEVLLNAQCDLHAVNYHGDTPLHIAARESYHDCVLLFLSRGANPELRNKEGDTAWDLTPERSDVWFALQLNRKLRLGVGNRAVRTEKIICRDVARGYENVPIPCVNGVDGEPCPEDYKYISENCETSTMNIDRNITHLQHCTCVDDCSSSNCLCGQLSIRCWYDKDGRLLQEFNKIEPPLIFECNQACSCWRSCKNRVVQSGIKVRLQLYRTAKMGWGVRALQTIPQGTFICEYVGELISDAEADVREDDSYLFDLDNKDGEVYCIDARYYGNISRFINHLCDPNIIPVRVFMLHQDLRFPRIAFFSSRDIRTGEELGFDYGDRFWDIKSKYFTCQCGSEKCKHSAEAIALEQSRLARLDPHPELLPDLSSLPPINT
UniProt Q5DW34: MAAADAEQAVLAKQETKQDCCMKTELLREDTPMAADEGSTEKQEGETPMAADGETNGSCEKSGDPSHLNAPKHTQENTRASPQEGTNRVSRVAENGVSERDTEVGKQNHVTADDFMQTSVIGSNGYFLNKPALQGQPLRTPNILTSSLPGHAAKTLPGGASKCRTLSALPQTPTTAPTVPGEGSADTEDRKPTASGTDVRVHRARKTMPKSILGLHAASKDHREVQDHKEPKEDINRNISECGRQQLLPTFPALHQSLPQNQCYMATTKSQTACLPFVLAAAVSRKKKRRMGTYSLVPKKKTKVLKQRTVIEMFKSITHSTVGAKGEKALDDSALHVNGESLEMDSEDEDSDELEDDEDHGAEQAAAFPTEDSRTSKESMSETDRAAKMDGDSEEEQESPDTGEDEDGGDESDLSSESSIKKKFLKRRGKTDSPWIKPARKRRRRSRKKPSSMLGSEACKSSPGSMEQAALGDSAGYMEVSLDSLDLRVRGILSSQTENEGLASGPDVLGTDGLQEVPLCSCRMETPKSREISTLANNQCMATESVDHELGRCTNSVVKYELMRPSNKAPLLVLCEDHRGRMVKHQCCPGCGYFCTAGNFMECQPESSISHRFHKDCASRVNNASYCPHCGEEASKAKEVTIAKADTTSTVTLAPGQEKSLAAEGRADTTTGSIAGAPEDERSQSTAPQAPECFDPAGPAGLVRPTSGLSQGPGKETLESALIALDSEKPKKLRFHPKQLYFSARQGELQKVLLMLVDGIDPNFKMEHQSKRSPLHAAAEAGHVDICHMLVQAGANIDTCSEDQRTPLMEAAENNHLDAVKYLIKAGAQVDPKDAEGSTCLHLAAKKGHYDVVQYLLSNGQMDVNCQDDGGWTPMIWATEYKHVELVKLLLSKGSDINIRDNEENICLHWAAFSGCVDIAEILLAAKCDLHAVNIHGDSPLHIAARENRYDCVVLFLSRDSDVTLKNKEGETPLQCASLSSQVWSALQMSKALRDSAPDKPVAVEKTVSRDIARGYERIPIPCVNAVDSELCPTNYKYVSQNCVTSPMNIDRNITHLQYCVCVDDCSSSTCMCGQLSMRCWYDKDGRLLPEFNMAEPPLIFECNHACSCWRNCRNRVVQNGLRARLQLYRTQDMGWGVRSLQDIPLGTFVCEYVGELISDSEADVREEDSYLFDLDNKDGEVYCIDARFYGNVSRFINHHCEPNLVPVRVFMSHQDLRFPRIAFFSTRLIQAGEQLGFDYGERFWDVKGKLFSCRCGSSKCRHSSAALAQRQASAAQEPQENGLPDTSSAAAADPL

What was measured:
Experiment in all cases: co-IP; protein extract of NIH3T3 fibroblasts transfected with HA-Mad2l2; precipitated with antibodies against G9a, GLP, Cdk1, pCdk1, Cyclin B1 or the HA tag, IgG as negative control; immunoblot of the precipitates
[1] = target: HA-Mad2l2 (mouse) (UniProt Q9D752)
[2] = target: Cyclin B1 (mouse (endogenous in NIH3T3)) (UniProt P24860)
[3] = target: G9a (mouse (endogenous in NIH3T3)) (UniProt Q9Z148)
[4] = target: GLP (mouse (endogenous in NIH3T3)) (UniProt Q5DW34)

Row | binding [1] | binding [2] | binding [3] | binding [4] | Substance
1 | binds | – | – | – | G9a (from UniProt Q9Z148 1-1263) (enzyme)
2 | – | no binding | binds | binds | HA-Mad2l2 (from UniProt Q9D752 1-211)
